Publication PMC12224949
No constants are given. Whether binding was seen depends on the method and setting. Binding seen in cells or lysates may run through a third protein. Some binding calls cover weakened binding; strength is not graded here.

By UniProt entry, the sequences of proteins in these tests, tags left out. Where a name states a change or a piece, a line headed by the entry shows the natural chain unless it says otherwise. Residues count along the entry.
HA-Sirt1 truncated mutant aa 1-235 (Q96EB6, residues 1-235): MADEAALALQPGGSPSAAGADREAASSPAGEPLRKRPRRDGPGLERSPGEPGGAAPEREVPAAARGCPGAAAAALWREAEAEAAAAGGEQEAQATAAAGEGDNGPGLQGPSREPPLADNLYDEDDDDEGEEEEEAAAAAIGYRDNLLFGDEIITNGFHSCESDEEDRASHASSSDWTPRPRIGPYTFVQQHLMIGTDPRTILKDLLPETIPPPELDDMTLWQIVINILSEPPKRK
HA-Sirt1 truncated mutant aa 236-496 (Q96EB6, residues 236-496): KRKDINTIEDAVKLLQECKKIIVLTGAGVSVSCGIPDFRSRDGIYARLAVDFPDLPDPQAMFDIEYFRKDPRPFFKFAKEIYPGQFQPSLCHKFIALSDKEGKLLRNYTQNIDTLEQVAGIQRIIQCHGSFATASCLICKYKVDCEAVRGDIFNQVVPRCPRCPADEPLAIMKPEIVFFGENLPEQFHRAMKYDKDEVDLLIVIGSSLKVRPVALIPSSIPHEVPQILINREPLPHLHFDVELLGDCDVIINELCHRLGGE
HA-Sirt1 truncated mutant aa 497-747 (Q96EB6, residues 497-747): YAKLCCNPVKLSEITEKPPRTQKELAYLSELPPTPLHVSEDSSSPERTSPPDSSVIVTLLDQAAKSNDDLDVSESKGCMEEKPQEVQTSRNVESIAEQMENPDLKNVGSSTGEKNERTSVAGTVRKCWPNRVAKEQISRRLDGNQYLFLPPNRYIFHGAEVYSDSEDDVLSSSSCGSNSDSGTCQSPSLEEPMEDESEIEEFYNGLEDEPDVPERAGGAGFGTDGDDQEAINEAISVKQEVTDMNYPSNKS

Tests used:
Assay in all cases: co-IP; Flag-Neu1 co-expressed with full-length HA-Sirt1 or truncated mutants of SIRT1 in 293T cells; Co-IP with anti-HA antibody
[1] = target: HA-Sirt1 truncated mutant aa 1-235 (UniProt Q96EB6)
[2] = target: HA-Sirt1 truncated mutant aa 236-496 (UniProt Q96EB6)
[3] = target: HA-Sirt1 truncated mutant aa 497-747 (UniProt Q96EB6)

Measured: binding

Full-length Flag-Neu1 (from UniProt Q99519 48-415)
binds: [1] | [2] | [3]
